# Reference: article PMC10617981
# By UniProt entry, the sequences of proteins in these tests, tags left out.
# UniProt Q7KZF4: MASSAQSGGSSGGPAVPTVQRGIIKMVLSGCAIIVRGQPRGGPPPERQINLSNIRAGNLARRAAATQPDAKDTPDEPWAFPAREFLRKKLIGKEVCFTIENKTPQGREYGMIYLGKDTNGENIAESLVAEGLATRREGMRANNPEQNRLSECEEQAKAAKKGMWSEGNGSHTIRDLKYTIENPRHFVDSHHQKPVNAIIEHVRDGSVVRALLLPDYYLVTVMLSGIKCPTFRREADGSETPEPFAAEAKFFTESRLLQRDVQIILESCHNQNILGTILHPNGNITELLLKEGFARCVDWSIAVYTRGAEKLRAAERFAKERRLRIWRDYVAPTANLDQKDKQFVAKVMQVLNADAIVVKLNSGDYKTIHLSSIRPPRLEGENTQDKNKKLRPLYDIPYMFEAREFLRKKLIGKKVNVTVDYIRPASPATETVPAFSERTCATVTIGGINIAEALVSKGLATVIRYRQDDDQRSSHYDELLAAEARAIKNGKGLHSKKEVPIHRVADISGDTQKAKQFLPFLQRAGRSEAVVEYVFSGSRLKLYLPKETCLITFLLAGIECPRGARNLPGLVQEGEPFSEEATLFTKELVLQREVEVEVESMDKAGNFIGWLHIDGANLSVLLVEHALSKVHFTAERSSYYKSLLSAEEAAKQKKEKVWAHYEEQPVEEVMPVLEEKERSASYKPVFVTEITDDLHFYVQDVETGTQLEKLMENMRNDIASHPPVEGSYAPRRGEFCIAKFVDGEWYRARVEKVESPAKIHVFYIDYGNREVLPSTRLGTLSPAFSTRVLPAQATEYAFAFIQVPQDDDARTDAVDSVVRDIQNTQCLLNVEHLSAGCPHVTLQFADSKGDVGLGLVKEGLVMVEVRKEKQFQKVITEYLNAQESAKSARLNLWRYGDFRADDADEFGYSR
# B1: metadherin (MTDH) (protein, UniProt Q86UE4 1-582)
# chain: MAARSWQDELAQQAEEGSARLREMLSVGLGFLRTELGLDLGLEPKRYPGWVILVGTGALGLLLLFLLGYGWAAACAGARKKRRSPPRKREEAAAVPAAAPDDLALLKNLRSEEQKKKNRKKLSEKPKPNGRTVEVAEGEAVRTPQSVTAKQPPEIDKKNEKSKKNKKKSKSDAKAVQNSSRHDGKEVDEGAWETKISHREKRQQRKRDKVLTDSGSLDSTIPGIENTITVTTEQLTTASFPVGSKKNKGDSHLNVQVSNFKSGKGDSTLQVSSGLNENLTVNGGGWNEKSVKLSSQISAGEEKWNSVSPASAGKRKTEPSAWSQDTGDANTNGKDWGRSWSDRSIFSGIGSTAEPVSQSTTSDYQWDVSRNQPYIDDEWSGLNGLSSADPNSDWNAPAEEWGNWVDEERASLLKSQEPIPDDQKVSDDDKEKGEGALPTGKSKKKKKKKKKQGEDNSTAQDTEELEKEIREDLPVNTSKTRPKQEKAFSLKTISTSDPAEVLVKNSQPIKTLPPATSTEPSVILSKSDSDKSSSQVPPILQETDKSKSNTKQNSVPPSQTKSETSWESPKQIKKKKKARRET
# Target: staphylococcal nuclease domain-containing protein 1 (SND1), endogenous (human (endogenous in A549^ACE2)) (UniProt Q7KZF4)
# Test: affinity purification with mass spectrometry
binder,measurement,value
B1,binding,binds

# Results are given in words; binding and its absence hold for the method and conditions named. Binding seen in cells or lysates may run through a third protein. Here binding means that the protein was enriched with, or labelled near, the bait; the list need not be complete.
